{"source": "patent US7893220B2", "about": "“Busulfan immunoassay” (Saladax Biomedical Inc., priority 2004, dated 2011)", "key": {"[1]": {"system": "busulfan antibodies (antisera of example 7)", "experiment": "Indirect competitive microtiter plate immunoassay (ELISA), busulfan derivative 11-BSA sensitized plates", "assay_type": "binding, mouse", "conditions": "antibody of example 7 with immunogen of examples 3 & 4; derivative 11-BSA plates", "description": "(§1) Ten Female BALB/c mice were immunized i.p. with 100 μg/mouse of Busulfan-BTG immunogen prepared in example 3 or with Busulfan-KLH immunogen prepared in example 4, emulsified in Complete Freund's Adjuvant. Mice were boosted once four weeks after the initial injection with 100 μg/mouse of the same immunogens emulsified in Incomplete Freund's Adjuvant. Ten or 28 days after the boost test bleeds from each mouse were obtained by orbital bleed. The anti-serum from these test bleeds contained Busulfan antibodies evaluated in Examples 9 , 10a and 10b. […]\n(§2) The ELISA method for screening busulfan antibodies (produced in example 7) was performed with the microtiter plates that were sensitized with busulfan-BSA as described in examples 8a and 8b. […] Following the incubation for color development, 50 μL of stop solution (1.5% sodium fluoride in di H2O) was added to each well to stop the color development and after 10 seconds of shaking the absorbance was determined at 650 nm (Molecular Devices Plate Reader). The amount of antibody in a well was proportional to the absorbance measured and was expressed as the dilution (titer) resulting in an absorbance of 1.5. Titers were determined by graphing Log antibody dilution of the antibody measured (x-axis) vs. absorbance 650 nm (y-axis) and extrapolating the titer at an absorbance of 1.5. […]"}, "[2]": {"system": "busulfan antibodies (antisera of example 7)", "experiment": "Indirect competitive microtiter plate immunoassay (ELISA), busulfan derivative 7-BSA sensitized plates", "assay_type": "binding, mouse", "conditions": "antibody of example 7 with immunogen of examples 3 & 4; derivative 7-BSA plates", "description": "as §1, §2"}}, "note": "Some of these results come from one statement about several compounds together."}
{"smiles": "C1CCSC1", "note": "[Tetrahydrothiophene, tetrahydrothiophene]", "values": [{"measurement": "percent cross-reactivity relative to busulfan", "setting": "[1]", "value": "less than 5%"}, {"measurement": "percent cross-reactivity relative to busulfan", "setting": "[2]", "value": "less than 5%"}]}
